In the supplement of paper PMC10849652:
The list shows a part of the results.

The chains behind the UniProt entries cited, without tags or fusion partners. Where a name states a change or a piece, a line headed by the entry shows the natural chain unless it says otherwise.
UniProt Q0JRZ9: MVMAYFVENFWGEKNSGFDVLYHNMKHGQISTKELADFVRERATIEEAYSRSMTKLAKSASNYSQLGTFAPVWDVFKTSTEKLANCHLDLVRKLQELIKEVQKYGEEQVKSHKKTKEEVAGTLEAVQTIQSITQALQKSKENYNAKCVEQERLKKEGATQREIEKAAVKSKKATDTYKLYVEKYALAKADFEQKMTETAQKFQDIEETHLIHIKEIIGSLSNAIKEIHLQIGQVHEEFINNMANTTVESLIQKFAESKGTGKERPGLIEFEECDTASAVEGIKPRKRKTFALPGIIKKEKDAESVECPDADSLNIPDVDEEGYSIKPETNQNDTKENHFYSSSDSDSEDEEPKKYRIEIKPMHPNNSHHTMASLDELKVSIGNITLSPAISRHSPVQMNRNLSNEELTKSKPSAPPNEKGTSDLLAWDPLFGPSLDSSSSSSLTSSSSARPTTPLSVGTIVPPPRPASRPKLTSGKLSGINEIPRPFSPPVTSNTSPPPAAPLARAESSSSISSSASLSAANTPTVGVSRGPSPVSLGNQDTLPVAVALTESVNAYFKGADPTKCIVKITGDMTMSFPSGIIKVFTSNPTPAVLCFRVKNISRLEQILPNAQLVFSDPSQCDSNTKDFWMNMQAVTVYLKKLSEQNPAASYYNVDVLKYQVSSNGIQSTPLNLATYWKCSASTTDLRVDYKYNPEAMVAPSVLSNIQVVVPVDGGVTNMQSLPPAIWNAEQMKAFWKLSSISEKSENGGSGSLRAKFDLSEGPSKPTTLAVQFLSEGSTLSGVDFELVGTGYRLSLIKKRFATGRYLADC
UniProt Q9P0K8: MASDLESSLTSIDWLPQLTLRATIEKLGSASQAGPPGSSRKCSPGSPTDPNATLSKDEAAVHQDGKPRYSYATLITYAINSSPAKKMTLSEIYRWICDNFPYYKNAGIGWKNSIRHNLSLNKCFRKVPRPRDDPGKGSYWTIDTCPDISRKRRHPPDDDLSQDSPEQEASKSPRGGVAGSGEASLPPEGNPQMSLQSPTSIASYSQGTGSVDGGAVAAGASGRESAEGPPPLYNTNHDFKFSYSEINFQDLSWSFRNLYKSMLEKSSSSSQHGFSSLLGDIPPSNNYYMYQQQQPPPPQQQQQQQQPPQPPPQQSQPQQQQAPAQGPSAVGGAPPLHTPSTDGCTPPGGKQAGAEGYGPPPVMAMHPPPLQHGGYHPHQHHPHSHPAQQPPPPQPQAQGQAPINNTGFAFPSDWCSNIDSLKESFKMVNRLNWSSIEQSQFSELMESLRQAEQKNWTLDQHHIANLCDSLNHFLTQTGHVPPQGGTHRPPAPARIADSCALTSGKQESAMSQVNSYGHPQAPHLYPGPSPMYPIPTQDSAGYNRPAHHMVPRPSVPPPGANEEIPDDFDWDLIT
UniProt Q9NW38: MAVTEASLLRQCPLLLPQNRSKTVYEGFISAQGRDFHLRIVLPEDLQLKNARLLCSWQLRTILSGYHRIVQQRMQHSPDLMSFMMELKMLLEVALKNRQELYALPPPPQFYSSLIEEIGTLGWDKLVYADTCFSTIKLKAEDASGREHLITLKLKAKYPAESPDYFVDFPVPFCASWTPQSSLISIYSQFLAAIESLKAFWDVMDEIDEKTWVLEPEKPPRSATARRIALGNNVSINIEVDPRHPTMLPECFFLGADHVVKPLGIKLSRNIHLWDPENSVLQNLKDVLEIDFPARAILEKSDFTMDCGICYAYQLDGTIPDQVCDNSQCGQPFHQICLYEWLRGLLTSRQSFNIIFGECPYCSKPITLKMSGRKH
UniProt Q96CP2: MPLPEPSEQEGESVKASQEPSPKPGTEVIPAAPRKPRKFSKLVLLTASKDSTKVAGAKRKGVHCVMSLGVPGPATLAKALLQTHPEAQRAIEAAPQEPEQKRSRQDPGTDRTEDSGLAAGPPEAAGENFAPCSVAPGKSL
UniProt Q96RU3: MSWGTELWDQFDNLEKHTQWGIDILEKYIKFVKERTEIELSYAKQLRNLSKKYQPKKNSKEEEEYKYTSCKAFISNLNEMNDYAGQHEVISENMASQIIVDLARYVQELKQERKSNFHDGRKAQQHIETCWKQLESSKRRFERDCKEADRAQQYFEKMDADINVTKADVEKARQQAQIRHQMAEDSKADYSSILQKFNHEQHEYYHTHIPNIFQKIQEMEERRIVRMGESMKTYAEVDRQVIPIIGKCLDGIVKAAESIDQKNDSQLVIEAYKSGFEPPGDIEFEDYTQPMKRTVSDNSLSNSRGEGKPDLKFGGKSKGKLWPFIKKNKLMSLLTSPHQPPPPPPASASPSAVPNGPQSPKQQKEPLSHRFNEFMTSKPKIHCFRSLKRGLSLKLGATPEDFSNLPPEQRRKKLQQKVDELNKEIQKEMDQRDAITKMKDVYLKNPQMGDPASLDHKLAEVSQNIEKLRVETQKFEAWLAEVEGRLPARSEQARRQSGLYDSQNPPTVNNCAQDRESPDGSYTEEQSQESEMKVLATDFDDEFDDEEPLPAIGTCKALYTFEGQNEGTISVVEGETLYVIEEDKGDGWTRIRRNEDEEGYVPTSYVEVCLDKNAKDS
UniProt Q96GI7: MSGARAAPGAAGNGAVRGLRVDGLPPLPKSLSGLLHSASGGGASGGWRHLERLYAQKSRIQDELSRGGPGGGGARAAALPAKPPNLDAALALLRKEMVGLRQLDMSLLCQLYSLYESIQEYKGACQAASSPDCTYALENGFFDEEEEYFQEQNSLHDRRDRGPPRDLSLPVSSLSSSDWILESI
UniProt Q9UIM3: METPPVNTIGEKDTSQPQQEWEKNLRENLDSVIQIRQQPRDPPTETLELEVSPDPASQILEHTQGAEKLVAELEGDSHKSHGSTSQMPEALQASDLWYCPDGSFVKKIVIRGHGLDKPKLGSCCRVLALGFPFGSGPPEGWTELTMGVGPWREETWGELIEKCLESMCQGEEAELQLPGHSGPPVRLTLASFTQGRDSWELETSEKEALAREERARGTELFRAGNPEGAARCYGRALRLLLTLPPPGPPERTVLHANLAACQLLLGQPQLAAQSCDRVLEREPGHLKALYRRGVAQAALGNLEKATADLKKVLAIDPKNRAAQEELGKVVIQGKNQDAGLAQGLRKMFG
UniProt Q00688: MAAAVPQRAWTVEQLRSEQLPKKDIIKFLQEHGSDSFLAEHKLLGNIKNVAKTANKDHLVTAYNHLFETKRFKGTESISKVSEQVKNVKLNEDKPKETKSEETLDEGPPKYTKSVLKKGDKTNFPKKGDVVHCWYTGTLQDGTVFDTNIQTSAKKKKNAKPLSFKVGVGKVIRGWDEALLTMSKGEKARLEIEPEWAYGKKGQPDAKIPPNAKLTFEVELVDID
UniProt Q8N0W3: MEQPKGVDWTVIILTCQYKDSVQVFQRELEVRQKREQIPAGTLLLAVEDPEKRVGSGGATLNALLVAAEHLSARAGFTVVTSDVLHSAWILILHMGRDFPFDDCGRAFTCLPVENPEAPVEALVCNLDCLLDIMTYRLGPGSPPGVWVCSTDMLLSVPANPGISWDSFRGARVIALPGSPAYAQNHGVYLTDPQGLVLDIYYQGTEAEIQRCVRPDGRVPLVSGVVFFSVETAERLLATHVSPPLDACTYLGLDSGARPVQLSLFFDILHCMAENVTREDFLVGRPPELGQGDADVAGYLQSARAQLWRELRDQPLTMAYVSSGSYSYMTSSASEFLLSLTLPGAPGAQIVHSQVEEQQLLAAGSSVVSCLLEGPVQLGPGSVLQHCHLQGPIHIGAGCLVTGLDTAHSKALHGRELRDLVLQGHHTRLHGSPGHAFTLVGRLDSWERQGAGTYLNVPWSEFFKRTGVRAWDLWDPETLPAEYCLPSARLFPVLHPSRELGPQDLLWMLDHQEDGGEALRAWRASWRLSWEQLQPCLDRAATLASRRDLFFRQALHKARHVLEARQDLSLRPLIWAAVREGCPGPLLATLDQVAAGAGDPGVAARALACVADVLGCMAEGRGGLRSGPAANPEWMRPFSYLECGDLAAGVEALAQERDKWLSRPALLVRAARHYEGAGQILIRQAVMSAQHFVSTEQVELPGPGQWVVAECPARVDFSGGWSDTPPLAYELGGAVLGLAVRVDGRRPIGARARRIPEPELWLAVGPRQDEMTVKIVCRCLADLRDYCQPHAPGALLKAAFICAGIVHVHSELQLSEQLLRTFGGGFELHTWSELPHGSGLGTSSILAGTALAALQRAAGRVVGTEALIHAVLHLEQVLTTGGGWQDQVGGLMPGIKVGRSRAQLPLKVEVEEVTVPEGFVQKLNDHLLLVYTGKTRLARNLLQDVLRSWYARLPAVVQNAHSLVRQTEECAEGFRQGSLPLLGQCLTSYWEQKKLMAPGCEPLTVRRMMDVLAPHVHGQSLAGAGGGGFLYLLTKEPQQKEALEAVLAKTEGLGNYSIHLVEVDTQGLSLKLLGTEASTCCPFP
UniProt Q4L180: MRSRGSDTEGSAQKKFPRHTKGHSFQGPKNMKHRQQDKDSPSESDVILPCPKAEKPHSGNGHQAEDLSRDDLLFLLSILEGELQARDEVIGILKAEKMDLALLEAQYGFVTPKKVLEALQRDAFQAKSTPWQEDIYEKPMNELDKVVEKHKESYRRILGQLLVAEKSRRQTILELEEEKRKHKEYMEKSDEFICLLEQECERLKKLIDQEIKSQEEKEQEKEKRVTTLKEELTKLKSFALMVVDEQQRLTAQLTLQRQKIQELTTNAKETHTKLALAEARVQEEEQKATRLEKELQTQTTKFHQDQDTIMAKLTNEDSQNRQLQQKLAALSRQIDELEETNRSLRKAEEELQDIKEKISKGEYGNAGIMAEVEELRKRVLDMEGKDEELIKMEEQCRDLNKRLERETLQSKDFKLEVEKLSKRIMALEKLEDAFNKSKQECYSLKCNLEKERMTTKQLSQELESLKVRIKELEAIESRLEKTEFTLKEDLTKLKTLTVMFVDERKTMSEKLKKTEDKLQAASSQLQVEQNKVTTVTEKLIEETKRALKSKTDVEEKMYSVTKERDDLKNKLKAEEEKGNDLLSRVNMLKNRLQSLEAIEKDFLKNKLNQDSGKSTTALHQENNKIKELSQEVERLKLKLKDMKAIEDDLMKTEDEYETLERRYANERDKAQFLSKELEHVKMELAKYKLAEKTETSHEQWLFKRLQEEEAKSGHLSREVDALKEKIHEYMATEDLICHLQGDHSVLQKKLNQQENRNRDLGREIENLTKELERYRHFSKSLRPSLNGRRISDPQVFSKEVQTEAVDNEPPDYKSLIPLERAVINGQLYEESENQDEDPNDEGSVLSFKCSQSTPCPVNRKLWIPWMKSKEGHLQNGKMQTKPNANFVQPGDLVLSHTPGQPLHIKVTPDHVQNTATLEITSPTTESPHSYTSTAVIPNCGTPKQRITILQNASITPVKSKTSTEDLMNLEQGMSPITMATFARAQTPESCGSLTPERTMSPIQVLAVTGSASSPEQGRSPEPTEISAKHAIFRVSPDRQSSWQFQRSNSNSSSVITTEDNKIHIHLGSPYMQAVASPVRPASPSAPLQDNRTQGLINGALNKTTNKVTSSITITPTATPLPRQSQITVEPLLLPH
UniProt Q8NFZ0: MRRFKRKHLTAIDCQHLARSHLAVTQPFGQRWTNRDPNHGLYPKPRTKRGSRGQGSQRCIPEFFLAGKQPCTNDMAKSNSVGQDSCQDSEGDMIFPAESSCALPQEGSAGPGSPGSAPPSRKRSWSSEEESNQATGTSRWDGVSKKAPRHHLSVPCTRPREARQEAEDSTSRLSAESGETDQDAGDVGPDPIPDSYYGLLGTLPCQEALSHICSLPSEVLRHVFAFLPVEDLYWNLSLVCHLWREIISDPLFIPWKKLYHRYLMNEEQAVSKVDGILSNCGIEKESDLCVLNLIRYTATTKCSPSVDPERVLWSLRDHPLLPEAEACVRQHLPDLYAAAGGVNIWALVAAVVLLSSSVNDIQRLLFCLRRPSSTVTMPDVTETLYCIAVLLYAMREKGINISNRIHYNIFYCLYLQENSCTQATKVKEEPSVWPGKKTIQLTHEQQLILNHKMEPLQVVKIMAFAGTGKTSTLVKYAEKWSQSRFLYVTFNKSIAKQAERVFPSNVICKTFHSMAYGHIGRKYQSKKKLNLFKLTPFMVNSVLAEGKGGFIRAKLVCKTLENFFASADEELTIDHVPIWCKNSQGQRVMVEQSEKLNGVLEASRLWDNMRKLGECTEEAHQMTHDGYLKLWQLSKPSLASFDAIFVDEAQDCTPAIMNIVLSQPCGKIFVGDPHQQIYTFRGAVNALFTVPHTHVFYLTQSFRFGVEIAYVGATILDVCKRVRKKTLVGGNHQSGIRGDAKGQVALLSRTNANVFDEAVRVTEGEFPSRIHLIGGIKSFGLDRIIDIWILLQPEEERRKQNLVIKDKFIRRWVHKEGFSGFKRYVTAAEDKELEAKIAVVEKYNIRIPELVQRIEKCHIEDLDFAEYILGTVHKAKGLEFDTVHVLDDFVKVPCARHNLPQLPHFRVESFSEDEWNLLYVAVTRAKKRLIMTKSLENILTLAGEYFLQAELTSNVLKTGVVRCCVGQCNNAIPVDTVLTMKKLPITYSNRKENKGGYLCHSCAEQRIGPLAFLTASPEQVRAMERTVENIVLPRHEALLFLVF

What was measured:
Experiment in all cases: log2 fold change, soluble protein after heating vs DMSO (PISA); higher = thermal stabilisation; K562 lysate, 10 uM; active = over 0.2 and 3.5 SD of the protein, either way, in both replicates (recomputed)
erlotinib = compound: C#Cc1cccc(Nc2ncnc3cc(OCCOC)c(OCCOC)cc23)c1 [erlotinib]
In short: (§1)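 Values give the log-two fold change in thermal stability against solvent controls, from duplicates. Crude K562 extract at 1 mg/mL protein, made by dounce homogenisation in PBS pH 7.4 with 1 mM MgCl2, was treated with 10 μM compound for 30 min. After 3 min heating across 48°C-58°C, aliquots were pooled, adjusted to 0.5% NP-40 at 4°C and centrifuged at 21,000xg for 90 min. The supernatant was measured by TMTpro 16plex LC-MS/MS with channel sums equalised.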

[1] = compound: C/C(=N\NC(=O)C1=CC(=CC=C1)S(=O)(=O)N2CCOCC2)/C3=C(C=CC(=C3)Cl)O
In short: as §1

[2] = compound: C1=CC(=CC=C1C2=NC3=C(N2)C=C(C=C3)C(=O)N)OC4=CC=C(C=C4)Cl
In short: as §1

[3] = compound: C1=CC2=C(C=CC(=C2)/C=C\3/C(=O)NC(=NCC4=CC=CS4)S3)N=C1
In short: as §1

[4] = compound: C1=CC2=NC=CN=C2C=C1/C=C/3\C(=O)NC(=O)S3
In short: as §1

[5] = compound: C1=CC=C(C=C1)C2=NC(=C(N2)C3=CC=NC=C3)C4=CC(=C(C=C4)Cl)O
In short: as §1

[6] = compound: C1=CC=C2C(=C1)C3=NNC4=CC=CC(=C43)C2=O
In short: as §1

[7] = compound: C1CCN(C1)C(=O)NC2=CC=CC(=C2)NC3=NC=C(C(=N3)NCCC4=CN=CN4)Br
In short: as §1

[8] = compound: C1CN(CCC1(CC2=CC=C(C=C2)Cl)N)C3=NC=NC4=C3C=CN4
In short: as §1

IRAK-1-4 Inhibitor I = compound: C1COCCN1CCN2C3=CC=CC=C3N=C2NC(=O)C4=CC(=CC=C4)[N+](=O)[O-] [IRAK-1-4 Inhibitor I]
In short: as §1

Measured: log2 fold change

FBXO9 (UniProt Q9UK97)
inactive: erlotinib -0.06 | [1] 0.126 | [2] 0.091 | [3] 0.013 | [4] 0.086 | [5] 0.01 | [6] -0.032 | [7] 0.019 | [8] -0.108 | IRAK-1-4 Inhibitor I -0.005

FKRP (UniProt Q9H9S5)
inactive: erlotinib 0.145 | [1] -0.029 | [2] 0.053 | [3] -0.086 | [5] 0.037 | [6] 0.026 | [7] -0.153 | [8] -0.042 | IRAK-1-4 Inhibitor I -0.034

FKBP5 (UniProt Q13451)
inactive: erlotinib -0.005 | [1] -0.09 | [2] -0.029 | [3] 0.025 | [4] 0.002 | [5] 0.005 | [6] -0.012 | [7] 0.049 | [8] 0.027 | IRAK-1-4 Inhibitor I -0.018

FCHO2 (UniProt Q0JRZ9)
inactive: erlotinib -0.017 | [1] -0.007 | [2] 0.031 | [3] 0.023 | [4] 0.001 | [5] 0.01 | [6] -0.008 | [7] -0.058 | [8] -0.008 | IRAK-1-4 Inhibitor I -0.056

FAU (UniProt E9PR30)
inactive: erlotinib -0.026 | [1] -1.8 | [2] -0.059 | [3] -0.048 | [4] 0.016 | [5] -0.016 | [6] 0 | [7] 0.011 | [8] -0.021 | IRAK-1-4 Inhibitor I 0.053

FMR1 (UniProt Q06787)
inactive: erlotinib -0.092 | [1] -0.043 | [2] -0.077 | [3] 0 | [4] 0.078 | [5] -0.015 | [6] 0.201 | [7] 0.003 | [8] 0.044 | IRAK-1-4 Inhibitor I 0

FOXJ2 (UniProt Q9P0K8)
inactive: erlotinib 0.102 | [2] 0.056 | [4] 0.139 | [5] 0.026 | [7] 0.138 | [8] -0.036 | IRAK-1-4 Inhibitor I -0.03

FEM1A (UniProt Q9BSK4)
inactive: erlotinib -0.024 | [1] 0.018 | [2] 0.04 | [3] -0.042 | [5] 0.193 | [6] -0.059 | [7] 0.119 | [8] 0.09 | IRAK-1-4 Inhibitor I 0.034

FHL3 (UniProt Q13643)
inactive: erlotinib -0.001 | [1] -0.032 | [2] 0.011 | [3] 0.007 | [4] -0.002 | [5] 0.018 | [6] 0.087 | [7] 0.003 | [8] -0.016 | IRAK-1-4 Inhibitor I -0.037

FBXO7 (UniProt Q9Y3I1)
inactive: erlotinib -0.026 | [1] 0.027 | [2] 0.04 | [3] -0.009 | [4] 0.006 | [5] -0.002 | [6] -0.029 | [7] -0.037 | [8] -0.015 | IRAK-1-4 Inhibitor I 0.035

FAT3 isoform 1 (UniProt Q8TDW7)
inactive: erlotinib -0.027 | [1] 0.046 | [2] 0.333 | [3] -0.065 | [4] 0.024 | [5] 0.022 | [6] 0.007 | [7] 0 | [8] 0.065 | IRAK-1-4 Inhibitor I 0.042

FLOT1 (UniProt O75955)
inactive: erlotinib 0.005 | [1] -0.022 | [2] -0.005 | [3] -0.003 | [4] -0.005 | [5] 0.011 | [6] -0.035 | [7] -0.009 | [8] 0.024 | IRAK-1-4 Inhibitor I 0.01

FCHSD1 (UniProt Q86WN1)
inactive: erlotinib 0.029 | [1] -0.018 | [2] -0.027 | [3] -0.163 | [4] -0.051 | [5] -0.044 | [6] -0.056 | [7] -0.008 | [8] -0.012 | IRAK-1-4 Inhibitor I 0.04

FANCL isoform 2 (UniProt Q9NW38)
inactive: erlotinib 0.013 | [2] -0.039 | [4] 0.037 | [5] 0.068 | [7] 0.122 | [8] -0.054 | IRAK-1-4 Inhibitor I 0.046

FKBP2 (UniProt P26885)
inactive: erlotinib 0.021 | [1] -0.014 | [2] -0.023 | [3] -0.084 | [4] -0.03 | [5] 0.01 | [6] 0.03 | [7] 0.006 | [8] 0.005 | IRAK-1-4 Inhibitor I 0.03

FLYWCH2 (UniProt Q96CP2)
inactive: erlotinib -0.062 | [1] 0.045 | [2] 0.016 | [3] -0.029 | [4] 0.015 | [5] 0.034 | [6] 0.087 | [7] -0.006 | [8] 0.009 | IRAK-1-4 Inhibitor I 0.027

FASTKD2 (UniProt Q9NYY8)
inactive: erlotinib 0.028 | [1] 0.041 | [2] -0.005 | [3] 0.03 | [4] 0.019 | [5] -0.007 | [6] -0.018 | [7] 0.013 | [8] 0.002 | IRAK-1-4 Inhibitor I 0.016

FASTKD1 (UniProt Q53R41)
inactive: erlotinib 0.011 | [1] -0.033 | [2] -0.146 | [3] -0.03 | [5] 0.015 | [6] -0.027 | [7] -0.017 | [8] -0.017 | IRAK-1-4 Inhibitor I -0.028

FARP2 (UniProt H7C3M7)
inactive: erlotinib 0.089 | [1] 0.061 | [2] -0.189 | [3] 0.061 | [5] 0.036 | [6] -0.002 | [7] -0.057 | [8] 0.145 | IRAK-1-4 Inhibitor I 0.007

FNBP1 (UniProt Q96RU3)
inactive: erlotinib 0.088 | [1] -0.152 | [2] 0.069 | [3] -0.037 | [4] -0.047 | [5] -0.047 | [6] 0.011 | [7] -0.001 | [8] -0.042 | IRAK-1-4 Inhibitor I -0.009

FAM89A (UniProt Q96GI7)
inactive: erlotinib -0.033 | [1] 0.038 | [2] 0.005 | [3] 0.002 | [4] -0.057 | [5] 0.036 | [6] -0.046 | [7] 0.059 | [8] -0.001 | IRAK-1-4 Inhibitor I 0.073

FKBPL (UniProt Q9UIM3)
inactive: erlotinib 0.009 | [1] 0.001 | [2] 0.051 | [3] -0.02 | [4] 0.013 | [5] 0.039 | [6] 0.01 | [7] -0.016 | [8] -0.006 | IRAK-1-4 Inhibitor I 0.012

FLNA (UniProt H0Y5C6)
inactive: erlotinib -0.039 | [1] -0.247 | [2] -0.128 | [3] -0.036 | [6] 0.202

Pulled one by one from the list above (two):
FNBP1 (UniProt Q96RU3)
inactive: erlotinib 0.088 | [1] -0.152 | [2] 0.069 | [3] -0.037 | [4] -0.047 | [5] -0.047 | [6] 0.011 | [7] -0.001 | [8] -0.042 | IRAK-1-4 Inhibitor I -0.009

FCHO2 (UniProt Q0JRZ9)
inactive: erlotinib -0.017 | [1] -0.007 | [2] 0.031 | [3] 0.023 | [4] 0.001 | [5] 0.01 | [6] -0.008 | [7] -0.058 | [8] -0.008 | IRAK-1-4 Inhibitor I -0.056

(listing goes on)

FNTA (UniProt P49354)
inactive: erlotinib -0.044 | [1] 0.046 | [2] -0.052 | [3] -0.014 | [4] 0.021 | [5] 0.054 | [6] 0.027 | [7] -0.012 | [8] -0.011 | IRAK-1-4 Inhibitor I 0.001

FKBP3 (UniProt Q00688)
inactive: erlotinib 0 | [1] -0.006 | [2] 0.03 | [3] -0.033 | [4] -0.005 | [5] 0.004 | [6] -0.001 | [7] 0.017 | [8] 0.036 | IRAK-1-4 Inhibitor I 0.004

FHAD1 isoform 3 (UniProt B1AJZ9)
inactive: erlotinib 0.091 | [1] 0.01 | [2] 0.174 | [3] -0.124 | [5] 0.075 | [6] -0.107 | [7] -0.085 | [8] 0.077 | IRAK-1-4 Inhibitor I 0.115

FCSK (UniProt Q8N0W3)
inactive: erlotinib -0.008 | [1] -0.015 | [2] 0.028 | [3] 0.017 | [4] -0.007 | [5] -0.026 | [6] -0.019 | [7] -0.082 | [8] -0.012 | IRAK-1-4 Inhibitor I 0.022

FH (UniProt P07954)
inactive: erlotinib -0.008 | [1] 0.055 | [2] -0.008 | [3] 0.033 | [4] 0 | [5] -0.024 | [6] 0.034 | [7] -0.019 | [8] 0.021 | IRAK-1-4 Inhibitor I 0

FILIP1L (UniProt Q4L180)
inactive: [5] 0.151 | [7] -0.154 | [8] -0.094 | IRAK-1-4 Inhibitor I 0.001

FBLN1 (UniProt P23142)
inactive: [1] 0.085 | [3] -0.222 | [4] 0.033 | [5] -0.071 | [6] 0.142 | IRAK-1-4 Inhibitor I 0.005

FAM86B2 (UniProt P0C5J1)
inactive: [1] 0.045 | [3] 0.021 | [4] 0.01 | [5] 0.142 | [6] 0.029 | IRAK-1-4 Inhibitor I 0.079

FBH1 isoform 2 (UniProt Q8NFZ0)
inactive: [4] 0.04

FBXL4 (UniProt Q9UKA2)
inactive: erlotinib -0.021 | [2] 0.042 | [5] 0.074 | [7] 0.206 | [8] 0.157 | IRAK-1-4 Inhibitor I 0.003
